Data taken from doi:10.1101/059964.
Results are given in words; binding and its absence hold for the method and conditions named. Binding seen in cells or lysates may run through a third protein. A yes stands for co-enrichment or nearness to the bait. Other partners may have been found. For some assays here: No binding means not detected with the bait. Blank lines part the entries; values can stand above or below the binder they belong to.

Sequences of proteins named here, by UniProt entry; tags and fusion partners are left off.
UniProt P68400: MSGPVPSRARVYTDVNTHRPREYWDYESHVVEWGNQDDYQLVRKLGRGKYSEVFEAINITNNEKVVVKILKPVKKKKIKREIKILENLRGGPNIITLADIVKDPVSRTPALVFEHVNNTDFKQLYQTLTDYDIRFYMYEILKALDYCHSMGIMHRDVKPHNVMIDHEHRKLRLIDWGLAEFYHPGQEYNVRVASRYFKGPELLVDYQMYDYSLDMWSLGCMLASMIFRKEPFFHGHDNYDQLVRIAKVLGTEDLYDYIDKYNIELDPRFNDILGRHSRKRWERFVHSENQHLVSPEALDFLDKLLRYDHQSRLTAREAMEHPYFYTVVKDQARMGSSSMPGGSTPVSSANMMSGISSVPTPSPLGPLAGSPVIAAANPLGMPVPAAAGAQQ
UniProt Q06587: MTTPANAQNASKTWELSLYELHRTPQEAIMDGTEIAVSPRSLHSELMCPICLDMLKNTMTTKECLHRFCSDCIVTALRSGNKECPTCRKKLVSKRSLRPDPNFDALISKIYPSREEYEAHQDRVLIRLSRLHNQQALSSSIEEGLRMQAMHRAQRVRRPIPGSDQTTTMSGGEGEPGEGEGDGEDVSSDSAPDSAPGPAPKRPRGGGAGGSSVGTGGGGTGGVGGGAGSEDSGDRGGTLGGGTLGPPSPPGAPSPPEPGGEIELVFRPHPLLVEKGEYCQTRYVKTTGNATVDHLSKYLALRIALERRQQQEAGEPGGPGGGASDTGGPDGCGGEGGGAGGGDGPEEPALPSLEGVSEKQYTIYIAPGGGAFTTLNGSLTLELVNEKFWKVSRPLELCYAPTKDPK
UniProt Q99496: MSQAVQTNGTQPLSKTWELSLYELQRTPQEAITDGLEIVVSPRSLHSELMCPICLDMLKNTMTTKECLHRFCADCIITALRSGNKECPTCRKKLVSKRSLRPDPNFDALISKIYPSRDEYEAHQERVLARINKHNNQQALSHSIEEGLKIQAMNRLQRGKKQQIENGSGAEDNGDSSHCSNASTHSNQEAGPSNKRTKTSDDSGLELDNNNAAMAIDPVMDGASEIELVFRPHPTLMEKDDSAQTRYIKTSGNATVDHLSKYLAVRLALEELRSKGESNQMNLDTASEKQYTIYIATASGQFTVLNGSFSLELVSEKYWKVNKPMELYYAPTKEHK
UniProt Q76L83: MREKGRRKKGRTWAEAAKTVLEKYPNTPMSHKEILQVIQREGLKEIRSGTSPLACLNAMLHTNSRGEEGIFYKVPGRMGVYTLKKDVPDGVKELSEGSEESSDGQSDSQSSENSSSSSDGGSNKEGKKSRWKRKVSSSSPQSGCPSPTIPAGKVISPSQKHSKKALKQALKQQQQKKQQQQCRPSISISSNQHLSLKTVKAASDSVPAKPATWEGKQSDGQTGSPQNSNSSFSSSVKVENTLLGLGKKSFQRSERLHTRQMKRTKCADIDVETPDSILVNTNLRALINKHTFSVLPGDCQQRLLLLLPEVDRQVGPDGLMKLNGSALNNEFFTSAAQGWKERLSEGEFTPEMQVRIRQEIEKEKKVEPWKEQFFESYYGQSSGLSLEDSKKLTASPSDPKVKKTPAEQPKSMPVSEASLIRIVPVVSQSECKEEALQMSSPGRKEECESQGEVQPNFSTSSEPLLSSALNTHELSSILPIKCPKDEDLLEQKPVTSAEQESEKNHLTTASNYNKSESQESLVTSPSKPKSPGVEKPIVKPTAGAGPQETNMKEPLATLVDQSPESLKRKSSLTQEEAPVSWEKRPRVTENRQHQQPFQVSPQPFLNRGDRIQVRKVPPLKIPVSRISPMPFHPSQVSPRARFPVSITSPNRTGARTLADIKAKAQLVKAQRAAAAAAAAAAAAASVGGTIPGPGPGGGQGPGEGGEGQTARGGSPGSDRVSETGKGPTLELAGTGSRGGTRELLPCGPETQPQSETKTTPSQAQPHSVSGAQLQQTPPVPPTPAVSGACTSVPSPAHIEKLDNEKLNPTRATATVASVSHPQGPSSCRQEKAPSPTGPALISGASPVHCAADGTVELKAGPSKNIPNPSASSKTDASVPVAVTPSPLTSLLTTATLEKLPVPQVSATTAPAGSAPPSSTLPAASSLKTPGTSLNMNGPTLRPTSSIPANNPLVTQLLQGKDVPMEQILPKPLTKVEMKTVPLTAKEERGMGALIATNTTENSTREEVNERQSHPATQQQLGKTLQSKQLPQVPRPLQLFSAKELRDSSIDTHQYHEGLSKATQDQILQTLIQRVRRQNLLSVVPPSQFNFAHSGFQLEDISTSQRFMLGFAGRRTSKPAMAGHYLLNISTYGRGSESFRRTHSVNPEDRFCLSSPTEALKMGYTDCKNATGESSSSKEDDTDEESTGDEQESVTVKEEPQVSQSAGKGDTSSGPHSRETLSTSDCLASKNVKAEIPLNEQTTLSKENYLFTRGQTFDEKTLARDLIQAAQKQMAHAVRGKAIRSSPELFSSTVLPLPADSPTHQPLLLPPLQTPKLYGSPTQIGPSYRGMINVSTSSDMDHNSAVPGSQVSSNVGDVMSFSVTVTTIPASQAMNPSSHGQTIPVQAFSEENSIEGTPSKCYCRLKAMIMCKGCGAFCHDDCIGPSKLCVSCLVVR

Tests used:
Assay in all cases: affinity purification with mass spectrometry
CSK21 (human) = CSK21 (human) (UniProt P68400)
CSK22 (human) = CSK22 (human) (UniProt P19784)
DCAF7 (human) = target: T1, DCAF7 (human) (UniProt P61962)
T1 sequence: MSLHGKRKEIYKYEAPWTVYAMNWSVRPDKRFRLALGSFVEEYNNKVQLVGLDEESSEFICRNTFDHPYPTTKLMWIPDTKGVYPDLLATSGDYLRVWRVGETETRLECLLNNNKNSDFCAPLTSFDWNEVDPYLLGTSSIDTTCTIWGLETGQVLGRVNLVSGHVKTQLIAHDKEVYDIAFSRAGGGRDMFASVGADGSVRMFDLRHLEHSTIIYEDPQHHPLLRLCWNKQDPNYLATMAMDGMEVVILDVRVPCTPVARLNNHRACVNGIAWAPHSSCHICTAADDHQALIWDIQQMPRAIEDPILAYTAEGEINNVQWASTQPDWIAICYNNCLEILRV

RING1 (human) = RING1 (human) (UniProt Q06587)
RING2 (human) = RING2 (human) (UniProt Q99496)
RYBP (human) = target: T2, RYBP (human) (UniProt Q8N488)
T2 sequence: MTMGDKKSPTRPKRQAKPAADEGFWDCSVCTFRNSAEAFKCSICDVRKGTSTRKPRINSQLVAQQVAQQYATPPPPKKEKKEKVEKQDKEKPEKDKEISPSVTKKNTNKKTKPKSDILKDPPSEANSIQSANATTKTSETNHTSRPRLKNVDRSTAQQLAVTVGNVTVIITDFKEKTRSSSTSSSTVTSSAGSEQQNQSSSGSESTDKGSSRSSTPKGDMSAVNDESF

YAF2 (human) = target: T3, YAF2 (human) (UniProt Q8IY57)
T3 sequence: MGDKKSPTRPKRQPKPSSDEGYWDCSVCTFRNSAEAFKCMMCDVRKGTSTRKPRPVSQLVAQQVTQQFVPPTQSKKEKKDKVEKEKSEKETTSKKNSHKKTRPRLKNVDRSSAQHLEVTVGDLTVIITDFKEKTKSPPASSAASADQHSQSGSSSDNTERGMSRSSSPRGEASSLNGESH

CBX5 (human), P45973 = details: remark: other sources report otherwise
OGT1 (human) = target: T4, OGT1 (human) (UniProt O15294)
T4 sequence: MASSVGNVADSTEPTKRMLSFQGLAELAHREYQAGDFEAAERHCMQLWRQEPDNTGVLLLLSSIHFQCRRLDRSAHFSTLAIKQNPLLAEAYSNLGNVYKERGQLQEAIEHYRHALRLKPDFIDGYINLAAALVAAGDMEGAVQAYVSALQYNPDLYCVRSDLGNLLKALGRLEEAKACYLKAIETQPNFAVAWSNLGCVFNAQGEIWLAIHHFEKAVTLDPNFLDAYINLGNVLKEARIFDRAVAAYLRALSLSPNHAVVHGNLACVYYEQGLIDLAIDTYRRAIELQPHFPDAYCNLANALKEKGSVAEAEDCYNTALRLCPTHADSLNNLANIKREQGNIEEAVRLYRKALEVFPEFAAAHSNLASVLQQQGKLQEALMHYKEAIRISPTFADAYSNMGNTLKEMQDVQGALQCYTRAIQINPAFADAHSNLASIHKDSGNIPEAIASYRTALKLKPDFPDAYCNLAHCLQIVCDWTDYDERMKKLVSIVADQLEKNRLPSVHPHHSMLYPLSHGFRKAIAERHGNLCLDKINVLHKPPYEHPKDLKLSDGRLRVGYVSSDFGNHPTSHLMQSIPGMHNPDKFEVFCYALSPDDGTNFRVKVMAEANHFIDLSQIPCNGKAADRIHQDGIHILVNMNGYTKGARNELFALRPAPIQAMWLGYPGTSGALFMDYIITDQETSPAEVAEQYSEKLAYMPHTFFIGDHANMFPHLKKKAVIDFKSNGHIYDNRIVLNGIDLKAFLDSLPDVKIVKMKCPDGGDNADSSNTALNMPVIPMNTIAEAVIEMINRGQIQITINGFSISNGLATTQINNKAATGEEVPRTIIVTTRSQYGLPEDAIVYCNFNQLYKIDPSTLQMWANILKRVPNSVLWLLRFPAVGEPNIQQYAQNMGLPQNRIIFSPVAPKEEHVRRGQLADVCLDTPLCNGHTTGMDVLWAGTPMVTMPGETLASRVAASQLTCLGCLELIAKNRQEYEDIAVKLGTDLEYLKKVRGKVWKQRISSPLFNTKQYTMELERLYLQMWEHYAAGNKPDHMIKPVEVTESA

ASXL2 (human) = ASXL2 (human) (UniProt Q76L83)

binding (CSK21 (human)): binds | binding (CSK22 (human)): binds | binding (DCAF7 (human)): binds | binding (RING1 (human)): binds | binding (RING2 (human)): binds | binding (RYBP (human)): binds | binding (YAF2 (human)): binds
B1: PCGF3 (protein, UniProt Q3KNV8 1-242)
chain: MLTRKIKLWDINAHITCRLCSGYLIDATTVTECLHTFCRSCLVKYLEENNTCPTCRIVIHQSHPLQYIGHDRTMQDIVYKLVPGLQEAEMRKQREFYHKLGMEVPGDIKGETCSAKQHLDSHRNGETKADDSSNKEAAEEKPEEDNDYHRSDEQVSICLECNSSKLRGLKRKWIRCSAQATVLHLKKFIAKKLNLSSFNELDILCNEEILGKDHTLKFVVVTRWRFKKAPLLLHYRPKMDLL

binding (CBX5 (human), P45973): no binding
B2: EHMT2, Q96KQ7 1-1210 (protein)
chain: MAAAAGAAAAAAAEGEAPAEMGALLLEKETRGATERVHGSLGDTPRSEETLPKATPDSLEPAGPSSPASVTVTVGDEGADTPVGATPLIGDESENLEGDGDLRGGRILLGHATKSFPSSPSKGGSCPSRAKMSMTGAGKSPPSVQSLAMRLLSMPGAQGAAAAGSEPPPATTSPEGQPKVHRARKTMSKPGNGQPPVPEKRPPEIQHFRMSDDVHSLGKVTSDLAKRRKLNSGGGLSEELGSARRSGEVTLTKGDPGSLEEWETVVGDDFSLYYDSYSVDERVDSDSKSEVEALTEQLSEEEEEEEEEEEEEEEEEEEEEEEEDEESGNQSDRSGSSGRRKAKKKWRKDSPWVKPSRKRRKREPPRAKEPRGVNGVGSSGPSEYMEVPLGSLELPSEGTLSPNHAGVSNDTSSLETERGFEELPLCSCRMEAPKIDRISERAGHKCMATESVDGELSGCNAAILKRETMRPSSRVALMVLCETHRARMVKHHCCPGCGYFCTAGTFLECHPDFRVAHRFHKACVSQLNGMVFCPHCGEDASEAQEVTIPRGDGVTPPAGTAAPAPPPLSQDVPGRADTSQPSARMRGHGEPRRPPCDPLADTIDSSGPSLTLPNGGCLSAVGLPLGPGREALEKALVIQESERRKKLRFHPRQLYLSVKQGELQKVILMLLDNLDPNFQSDQQSKRTPLHAAAQKGSVEICHVLLQAGANINAVDKQQRTPLMEAVVNNHLEVARYMVQRGGCVYSKEEDGSTCLHHAAKIGNLEMVSLLLSTGQVDVNAQDSGGWTPIIWAAEHKHIEVIRMLLTRGADVTLTDNEENICLHWASFTGSAAIAEVLLNARCDLHAVNYHGDTPLHIAARESYHDCVLLFLSRGANPELRNKEGDTAWDLTPERSDVWFALQLNRKLRLGVGNRAIRTEKIICRDVARGYENVPIPCVNGVDGEPCPEDYKYISENCETSTMNIDRNITHLQHCTCVDDCSSSNCLCGQLSIRCWYDKDGRLLQEFNKIEPPLIFECNQACSCWRNCKNRVVQSGIKVRLQLYRTAKMGWGVRALQTIPQGTFICEYVGELISDAEADVREDDSYLFDLDNKDGEVYCIDARYYGNISRFINHLCDPNIIPVRVFMLHQDLRFPRIAFFSSRDIRTGEELGFDYGDRFWDIKSKYFTCQCGSEKCKHSAEAIALEQSRLARLDPHPELLPELGSLPPVNT

binding (OGT1 (human)): binds
B3: NCOAT (enzyme, UniProt O60502 1-916)
chain: MVQKESQATLEERESELSSNPAASAGASLEPPAAPAPGEDNPAGAGGAAVAGAAGGARRFLCGVVEGFYGRPWVMEQRKELFRRLQKWELNTYLYAPKDDYKHRMFWREMYSVEEAEQLMTLISAAREYEIEFIYAISPGLDITFSNPKEVSTLKRKLDQVSQFGCRSFALLFDDIDHNMCAADKEVFSSFAHAQVSITNEIYQYLGEPETFLFCPTEYCGTFCYPNVSQSPYLRTVGEKLLPGIEVLWTGPKVVSKEIPVESIEEVSKIIKRAPVIWDNIHANDYDQKRLFLGPYKGRSTELIPRLKGVLTNPNCEFEANYVAIHTLATWYKSNMNGVRKDVVMTDSEDSTVSIQIKLENEGSDEDIETDVLYSPQMALKLALTEWLQEFGVPHQYSSRQVAHSGAKASVVDGTPLVAAPSLNATTVVTTVYQEPIMSQGAALSGEPTTLTKEEEKKQPDEEPMDMVVEKQEETDHKNDNQILSEIVEAKMAEELKPMDTDKESIAESKSPEMSMQEDCISDIAPMQTDEQTNKEQFVPGPNEKPLYTAEPVTLEDLQLLADLFYLPYEHGPKGAQMLREFQWLRANSSVVSVNCKGKDSEKIEEWRSRAAKFEEMCGLVMGMFTRLSNCANRTILYDMYSYVWDIKSIMSMVKSFVQWLGCRSHSSAQFLIGDQEPWAFRGGLAGEFQRLLPIDGANDLFFQPPPLTPTSKVYTIRPYFPKDEASVYKICREMYDDGVGLPFQSQPDLIGDKLVGGLLSLSLDYCFVLEDEDGICGYALGTVDVTPFIKKCKISWIPFMQEKYTKPNGDKELSEAEKIMLSFHEEQEVLPETFLANFPSLIKMDIHKKVTDPSVAKSMMACLLSSLKANGSRGAFCEVRPDDKRILEFYSKLGCFEIAKMEGFPKDVVILGRSL

binding (ASXL2 (human)): binds | binding (OGT1 (human)): no binding
B4: MBD6 (protein, UniProt Q96DN6 1-1003)
chain: MNGGNESSGADRAGGPVATSVPIGWQRCVREGAVLYISPSGTELSSLEQTRSYLLSDGTCKCGLECPLNVPKVFNFDPLAPVTPGGAGVGPASEEDMTKLCNHRRKAVAMATLYRSMETTCSHSSPGEGASPQMFHTVSPGPPSARPPCRVPPTTPLNGGPGSLPPEPPSVSQAFPTLAGPGGLFPPRLADPVPSGGSSSPRFLPRGNAPSPAPPPPPAISLNAPSYNWGAALRSSLVPSDLGSPPAPHASSSPPSDPPLFHCSDALTPPPLPPSNNLPAHPGPASQPPVSSATMHLPLVLGPLGGAPTVEGPGAPPFLASSLLSAAAKAQHPPLPPPSTLQGRRPRAQAPSASHSSSLRPSQRRPRRPPTVFRLLEGRGPQTPRRSRPRAPAPVPQPFSLPEPSQPILPSVLSLLGLPTPGPSHSDGSFNLLGSDAHLPPPPTLSSGSPPQPRHPIQPSLPGTTSGSLSSVPGAPAPPAASKAPVVPSPVLQSPSEGLGMGAGPACPLPPLAGGEAFPFPSPEQGLALSGAGFPGMLGALPLPLSLGQPPPSPLLNHSLFGVLTGGGGQPPPEPLLPPPGGPGPPLAPGEPEGPSLLVASLLPPPPSDLLPPPSAPPSNLLASFLPLLALGPTAGDGEGSAEGAGGPSGEPFSGLGDLSPLLFPPLSAPPTLIALNSALLAATLDPPSGTPPQPCVLSAPQPGPPTSSVTTATTDPGASSLGKAPSNSGRPPQLLSPLLGASLLGDLSSLTSSPGALPSLLQPPGPLLSGQLGLQLLPGGGAPPPLSEASSPLACLLQSLQIPPEQPEAPCLPPESPASALEPEPARPPLSALAPPHGSPDPPVPELLTGRGSGKRGRRGGGGLRGINGEARPARGRKPGSRREPGRLALKWGTRGGFNGQMERSPRRTHHWQHNGELAEGGAEPKDPPPPGPHSEDLKVPPGVVRKSRRGRRRKYNPTRNSNSSRQDITLEPSPTARAAVPLPPRARPGRPAKNKRRKLAP
